Laboratory results: patent EP0450100A1 (MEIJI SEIKA KAISHA LTD., priority 1989, dated 1991)

How the values were obtained:
[1] = general procedure: Boc solid-phase peptide synthesis; benzhydrylamine-polystyrene resin (0.5 mmol/g); p-methylbenzhydrylamine-resin (0.3 mmol/g); active ester method, mixed anhydride method, DCC-HOBt (fragment condensation); conditions: coupling step
peptide synthesis = conditions: coupling step

| Substance | step yield [1] | step yield (peptide synthesis) |
| --- | --- | --- |
| Boc-VFT(Bn)D(OcHex)N-OH | 60.0% | – |
| Boc-Lys(Cl·Z)Leu-Leu-Ala-OH | – | 94.0% |
| Boc-S(Bn)ILGS(Bn)R(Tos)T(Bn)-NH2 | 66.8% | – |
| Boc-Thr(Bzl)-Lys(Cl·Z)-Leu-Leu-Ala-OH | 72.1% | – |
| Boc-His(Tos)-Ser(Bzl)-Asp(OcHex)-Ala-OH | – | 53.0% |
| Boc-Lys(Cl·Z)-Leu-Ala-Leu-Gln-Lys(Cl·Z)-Tyr(Cl₂·Bzl)-Leu-Ala-Ser(Bzl)-Ile-Leu-Gly-Ser(Bzl)-Arg(Tos)-Thr(Bzl)-NH₂ | 85.9% | – |
| Boc-Val-Phe-Thr(Bzl)-Asp(OcHex)-Asn-Tyr (Cl₂·Bzl)-Thr(Bzl)-Lys(Cl·Z)-Leu-Leu-Ala-Lys(Cl·Z)-Leu-Ala-Leu-Gln-Lys(Cl·Z)-Tyr(Cl₂·Bzl)-Leu-Ala-Ser(Bzl)-Ile-Leu-Gly-Ser(Bzl)-Arg(Tos)-Thr(Bzl)-NH₂ | 74.1% | – |
| Boc-LALQ-OH | 62.5% | – |
| Boc-AS(Bn)ILGS(Bn)R(Tos)T(Bn)-NH2 | 85.9% | – |
| Boc-FT(Bn)D(OcHex)N-OH | – | 88.3% |
| Boc-Tyr(Cl₂·Bzl)-Thr(Bzl)-Lys (Cl·Z)-Leu-Leu-Ala-Lys(Cl·Z)-Leu-Ala-Leu-Gln-Lys(Cl·Z)-Tyr(Cl₂·Bzl)-Leu-Ala-Ser(Bzl)-Ile-Leu-Gly-Ser(Bzl)-Arg (Tos)-Thr(Bzl)-NH₂ | 99.4% | – |
| Boc-LGS(Bn)R(Tos)T(Bn)-NH2 | – | 90.7% |
| Boc-ILGS(Bn)R(Tos)T(Bn)-NH2 | 89.1% | – |
| Boc-Tyr(Cl₂·Bzl)-Thr(Bzl)-Lys(Cl·Z)-Leu-Leu-Ala-OH | – | 99.8% |
| Boc-Lys(Cl·Z)-Tyr(Cl₂·Bzl)-Leu-Ala-Ser(Bzl)-Ile-Leu-Gly-Ser(Bzl)-Arg(Tos)-Thr(Bzl)-NH₂ | 87.4% | – |
| Boc-Lys (Cl·Z)-Leu-Ala-Leu-Gln-OH | – | 82.1% |

*: point of attachment. Tos = Cc1ccc(S(=O)(=O)*)cc1; Boc = CC(C)(C)OC(=O)*; OcHex = C1CCC(O*)CC1; Bn = c1ccc(C*)cc1
